Data from the supplement of paper PMC12819154, “High-throughput peptide-centric local stability assay extends protein–ligand identification to membrane proteins, tissues and bacteria” (Nature Structural & Molecular Biology, 2025).
The other results are listed elsewhere or left out. Most entries show no effect beyond the scatter of the controls.

Sequences of proteins named here, by UniProt entry; tags and fusion partners are left off. A change or cut given only in a name is not applied to a line headed by its entry.
UniProt Q91ZR1: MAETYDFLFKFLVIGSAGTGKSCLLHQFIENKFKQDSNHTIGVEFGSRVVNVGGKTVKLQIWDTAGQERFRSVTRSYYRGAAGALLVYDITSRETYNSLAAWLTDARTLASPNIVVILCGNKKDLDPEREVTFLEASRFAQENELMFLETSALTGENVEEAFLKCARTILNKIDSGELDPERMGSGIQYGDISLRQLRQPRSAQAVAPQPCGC
UniProt Q91YE8: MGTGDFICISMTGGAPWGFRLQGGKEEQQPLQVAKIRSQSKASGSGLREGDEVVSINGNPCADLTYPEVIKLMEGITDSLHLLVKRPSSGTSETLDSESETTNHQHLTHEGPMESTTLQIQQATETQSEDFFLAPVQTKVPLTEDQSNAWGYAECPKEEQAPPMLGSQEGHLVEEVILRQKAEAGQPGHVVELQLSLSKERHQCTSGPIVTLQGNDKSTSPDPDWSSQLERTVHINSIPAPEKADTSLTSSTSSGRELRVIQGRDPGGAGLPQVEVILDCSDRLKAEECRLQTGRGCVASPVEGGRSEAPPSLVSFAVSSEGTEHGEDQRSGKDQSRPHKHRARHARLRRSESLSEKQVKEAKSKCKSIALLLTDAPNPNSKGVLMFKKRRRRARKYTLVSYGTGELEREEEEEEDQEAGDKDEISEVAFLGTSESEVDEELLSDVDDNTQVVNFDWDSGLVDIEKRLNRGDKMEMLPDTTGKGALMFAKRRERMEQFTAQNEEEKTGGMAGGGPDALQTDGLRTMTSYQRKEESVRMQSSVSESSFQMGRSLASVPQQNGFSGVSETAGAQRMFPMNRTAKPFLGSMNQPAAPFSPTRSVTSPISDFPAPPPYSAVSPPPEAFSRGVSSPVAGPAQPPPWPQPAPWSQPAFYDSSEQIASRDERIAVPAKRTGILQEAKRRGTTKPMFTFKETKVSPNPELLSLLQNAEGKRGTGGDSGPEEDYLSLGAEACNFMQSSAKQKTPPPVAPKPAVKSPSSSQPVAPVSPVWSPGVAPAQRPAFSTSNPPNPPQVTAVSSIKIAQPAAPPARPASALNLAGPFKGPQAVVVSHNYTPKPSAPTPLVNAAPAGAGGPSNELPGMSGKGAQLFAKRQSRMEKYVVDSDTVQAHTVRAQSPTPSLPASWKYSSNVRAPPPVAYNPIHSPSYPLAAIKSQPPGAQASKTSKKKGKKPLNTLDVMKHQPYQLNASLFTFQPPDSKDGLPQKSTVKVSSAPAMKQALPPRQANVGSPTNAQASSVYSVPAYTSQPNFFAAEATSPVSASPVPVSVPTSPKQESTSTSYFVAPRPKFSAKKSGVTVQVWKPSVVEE
UniProt Q91W59: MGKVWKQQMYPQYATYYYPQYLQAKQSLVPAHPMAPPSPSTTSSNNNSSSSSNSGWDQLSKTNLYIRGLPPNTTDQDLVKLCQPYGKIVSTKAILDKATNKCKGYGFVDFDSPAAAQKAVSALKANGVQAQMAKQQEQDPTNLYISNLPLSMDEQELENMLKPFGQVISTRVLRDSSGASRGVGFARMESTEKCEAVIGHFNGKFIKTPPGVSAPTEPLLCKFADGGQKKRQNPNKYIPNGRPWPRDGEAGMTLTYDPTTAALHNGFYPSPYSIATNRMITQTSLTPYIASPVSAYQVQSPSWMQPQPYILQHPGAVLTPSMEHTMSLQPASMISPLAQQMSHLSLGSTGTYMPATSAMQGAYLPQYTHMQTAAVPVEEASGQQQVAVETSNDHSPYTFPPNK
UniProt Q91W18: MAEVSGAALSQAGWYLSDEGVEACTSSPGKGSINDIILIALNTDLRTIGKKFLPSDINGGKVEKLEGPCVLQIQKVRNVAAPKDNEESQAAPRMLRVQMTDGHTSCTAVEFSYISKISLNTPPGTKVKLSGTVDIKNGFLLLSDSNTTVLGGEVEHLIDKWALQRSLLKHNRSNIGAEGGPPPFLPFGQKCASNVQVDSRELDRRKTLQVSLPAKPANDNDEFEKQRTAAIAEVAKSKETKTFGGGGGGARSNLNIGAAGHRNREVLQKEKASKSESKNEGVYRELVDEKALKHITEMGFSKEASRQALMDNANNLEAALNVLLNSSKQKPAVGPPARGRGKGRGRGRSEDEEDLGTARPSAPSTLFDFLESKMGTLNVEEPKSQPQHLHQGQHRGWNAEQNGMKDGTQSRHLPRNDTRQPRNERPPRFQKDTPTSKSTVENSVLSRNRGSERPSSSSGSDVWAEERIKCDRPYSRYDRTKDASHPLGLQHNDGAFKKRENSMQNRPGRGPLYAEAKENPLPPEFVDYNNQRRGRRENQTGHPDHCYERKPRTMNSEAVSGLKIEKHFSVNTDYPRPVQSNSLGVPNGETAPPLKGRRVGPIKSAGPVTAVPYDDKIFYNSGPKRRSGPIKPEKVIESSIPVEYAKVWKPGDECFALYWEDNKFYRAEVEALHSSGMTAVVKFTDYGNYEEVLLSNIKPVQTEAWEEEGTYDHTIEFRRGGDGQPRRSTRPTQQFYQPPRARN
UniProt Q91XI1: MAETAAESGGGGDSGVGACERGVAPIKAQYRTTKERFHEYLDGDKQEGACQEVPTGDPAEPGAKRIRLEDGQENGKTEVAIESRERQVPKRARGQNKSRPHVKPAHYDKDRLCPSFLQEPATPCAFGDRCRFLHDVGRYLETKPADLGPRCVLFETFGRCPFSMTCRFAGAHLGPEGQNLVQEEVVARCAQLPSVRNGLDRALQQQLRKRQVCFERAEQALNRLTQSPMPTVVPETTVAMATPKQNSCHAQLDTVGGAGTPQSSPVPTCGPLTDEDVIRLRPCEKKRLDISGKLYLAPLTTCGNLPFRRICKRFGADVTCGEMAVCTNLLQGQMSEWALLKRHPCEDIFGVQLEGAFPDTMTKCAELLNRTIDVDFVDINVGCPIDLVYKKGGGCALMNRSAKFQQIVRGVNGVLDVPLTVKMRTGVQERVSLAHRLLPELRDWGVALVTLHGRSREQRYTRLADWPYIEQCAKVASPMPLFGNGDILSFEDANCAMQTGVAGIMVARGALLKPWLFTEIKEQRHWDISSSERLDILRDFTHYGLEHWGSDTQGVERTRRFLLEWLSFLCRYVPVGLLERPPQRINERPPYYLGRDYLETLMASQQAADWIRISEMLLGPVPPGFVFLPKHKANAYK
UniProt Q91XY4: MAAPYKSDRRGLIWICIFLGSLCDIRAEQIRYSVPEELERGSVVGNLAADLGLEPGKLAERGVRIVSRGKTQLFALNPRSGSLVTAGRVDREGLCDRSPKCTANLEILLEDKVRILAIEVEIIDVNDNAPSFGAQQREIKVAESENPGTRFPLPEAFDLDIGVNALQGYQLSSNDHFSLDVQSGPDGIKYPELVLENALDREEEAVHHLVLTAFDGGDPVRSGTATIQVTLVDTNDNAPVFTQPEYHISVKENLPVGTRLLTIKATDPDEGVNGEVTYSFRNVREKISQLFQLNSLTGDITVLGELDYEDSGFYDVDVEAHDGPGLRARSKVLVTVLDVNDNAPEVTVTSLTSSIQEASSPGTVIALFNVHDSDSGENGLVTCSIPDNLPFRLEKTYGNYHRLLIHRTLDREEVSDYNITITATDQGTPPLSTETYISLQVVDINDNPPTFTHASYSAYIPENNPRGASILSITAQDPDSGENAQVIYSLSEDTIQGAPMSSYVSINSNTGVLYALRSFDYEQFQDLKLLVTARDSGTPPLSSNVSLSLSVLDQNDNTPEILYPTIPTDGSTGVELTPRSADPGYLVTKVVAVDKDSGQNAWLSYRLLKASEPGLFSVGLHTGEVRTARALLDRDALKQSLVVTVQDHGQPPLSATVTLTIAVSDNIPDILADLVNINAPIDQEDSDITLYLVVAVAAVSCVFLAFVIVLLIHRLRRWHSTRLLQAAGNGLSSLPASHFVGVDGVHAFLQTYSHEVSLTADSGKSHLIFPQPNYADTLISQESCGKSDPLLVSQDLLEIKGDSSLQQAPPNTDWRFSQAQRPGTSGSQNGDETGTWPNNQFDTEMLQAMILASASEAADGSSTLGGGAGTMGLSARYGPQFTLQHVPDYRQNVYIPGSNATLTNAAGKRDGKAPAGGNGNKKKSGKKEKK
UniProt Q91WZ8: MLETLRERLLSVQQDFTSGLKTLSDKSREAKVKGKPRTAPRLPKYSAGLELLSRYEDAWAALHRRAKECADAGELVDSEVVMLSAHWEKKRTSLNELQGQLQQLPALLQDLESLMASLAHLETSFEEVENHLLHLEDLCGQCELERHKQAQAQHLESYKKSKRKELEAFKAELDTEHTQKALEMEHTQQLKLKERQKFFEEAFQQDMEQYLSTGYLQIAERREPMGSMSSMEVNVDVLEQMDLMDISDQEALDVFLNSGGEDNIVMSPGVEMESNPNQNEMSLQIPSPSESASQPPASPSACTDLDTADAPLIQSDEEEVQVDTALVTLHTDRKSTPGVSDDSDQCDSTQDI
UniProt Q91XV3: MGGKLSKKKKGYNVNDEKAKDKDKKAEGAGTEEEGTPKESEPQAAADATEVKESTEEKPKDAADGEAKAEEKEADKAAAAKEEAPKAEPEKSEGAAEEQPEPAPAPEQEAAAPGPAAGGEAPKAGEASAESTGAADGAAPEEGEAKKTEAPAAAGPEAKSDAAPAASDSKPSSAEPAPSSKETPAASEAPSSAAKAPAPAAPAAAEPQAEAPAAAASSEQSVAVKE
UniProt Q91YP3: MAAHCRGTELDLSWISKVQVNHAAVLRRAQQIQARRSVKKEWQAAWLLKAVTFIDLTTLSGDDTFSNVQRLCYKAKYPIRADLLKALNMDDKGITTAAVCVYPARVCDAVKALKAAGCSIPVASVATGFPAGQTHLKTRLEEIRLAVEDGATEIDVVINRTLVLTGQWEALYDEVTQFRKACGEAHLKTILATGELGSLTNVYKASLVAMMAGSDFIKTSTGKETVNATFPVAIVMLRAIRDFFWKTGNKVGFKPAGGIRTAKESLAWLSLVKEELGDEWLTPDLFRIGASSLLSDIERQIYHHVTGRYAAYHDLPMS
UniProt Q91WK2, whole entry: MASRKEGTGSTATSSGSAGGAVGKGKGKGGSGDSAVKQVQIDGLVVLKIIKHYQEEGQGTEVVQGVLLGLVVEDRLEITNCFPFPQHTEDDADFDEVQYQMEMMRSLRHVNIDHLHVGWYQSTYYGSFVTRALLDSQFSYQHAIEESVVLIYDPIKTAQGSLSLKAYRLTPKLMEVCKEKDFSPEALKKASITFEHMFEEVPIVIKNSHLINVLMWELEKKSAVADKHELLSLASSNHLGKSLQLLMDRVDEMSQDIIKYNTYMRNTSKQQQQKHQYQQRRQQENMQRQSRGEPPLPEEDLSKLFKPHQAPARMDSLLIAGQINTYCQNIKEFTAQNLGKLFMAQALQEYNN
UniProt Q91YR7: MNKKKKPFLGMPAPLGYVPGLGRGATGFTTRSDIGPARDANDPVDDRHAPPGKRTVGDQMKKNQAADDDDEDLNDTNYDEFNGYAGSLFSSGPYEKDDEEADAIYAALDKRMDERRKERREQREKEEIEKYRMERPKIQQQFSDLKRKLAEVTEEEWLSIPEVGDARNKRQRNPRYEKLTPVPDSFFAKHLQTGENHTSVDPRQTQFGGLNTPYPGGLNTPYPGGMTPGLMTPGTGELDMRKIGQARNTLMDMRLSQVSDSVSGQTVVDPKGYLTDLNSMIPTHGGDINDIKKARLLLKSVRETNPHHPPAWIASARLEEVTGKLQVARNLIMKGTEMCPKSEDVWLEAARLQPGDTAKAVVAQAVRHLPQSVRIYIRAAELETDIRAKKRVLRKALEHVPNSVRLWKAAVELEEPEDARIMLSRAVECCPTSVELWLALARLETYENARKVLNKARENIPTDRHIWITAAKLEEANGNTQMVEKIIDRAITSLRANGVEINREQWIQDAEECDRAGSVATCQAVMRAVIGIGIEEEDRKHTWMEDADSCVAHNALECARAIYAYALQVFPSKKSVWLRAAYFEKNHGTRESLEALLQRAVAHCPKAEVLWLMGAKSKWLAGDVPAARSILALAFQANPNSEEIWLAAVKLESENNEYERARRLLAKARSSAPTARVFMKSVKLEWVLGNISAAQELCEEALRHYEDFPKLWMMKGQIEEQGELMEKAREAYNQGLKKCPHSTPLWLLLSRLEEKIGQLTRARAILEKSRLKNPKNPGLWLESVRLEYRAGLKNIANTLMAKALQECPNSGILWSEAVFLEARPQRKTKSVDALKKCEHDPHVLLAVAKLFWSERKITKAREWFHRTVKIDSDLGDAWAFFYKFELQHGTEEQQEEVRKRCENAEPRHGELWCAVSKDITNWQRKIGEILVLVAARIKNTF

The targets below were run with CN[C@@H]1C[C@H]2O[C@@](C)([C@@H]1OC)n1c3ccccc3c3c4c(c5c6ccccc6n2c5c31)C(=O)NC4 [staurosporine] (assay: log2 fold change of tryptic peptide abundance, ligand vs vehicle (limited proteolysis) (log2 ratio); higher = more trypsin-susceptible (destabilized)). Conditions: ligand concentration: 20 uM; sample: mouse liver crude lysate; replicate design: treated separately.

Row | Target | log2 fold change
1 | UniProt Q91ZR1 (peptide sequence: SCLLHQFIENK, peptide start residue: 22) | -0.142
2 | UniProt Q91YE8 (peptide sequence: QKTPPPVAPKPAVK, peptide start residue: 742) | -0.215
3 | UniProt Q91W59 (peptide sequence: YIPNGRPWPR, peptide start residue: 237) | 0.342
4 | UniProt Q91W18 (peptide sequence: CDRPYSR, peptide start residue: 470) | -0.949
5 | UniProt Q91XI1 (peptide sequence: DWGVALVTLHGR, peptide start residue: 443) | 0.339
6 | UniProt Q91XY4 (peptide sequence: QNVYIPGSNATLTNAAGKR, peptide start residue: 891) | 0.113
7 | UniProt Q91WZ8 (peptide sequence: QAQAQHLESYKK, peptide start residue: 149) | 0.224
8 | UniProt Q91XV3 (peptide sequence: EADKAAAAKEEAPK, peptide start residue: 73) | -0.797
9 | UniProt Q91YP3 (peptide sequence: GTELDLSWISK, peptide start residue: 7) | 0.342
10 | UniProt Q91WK2 (peptide sequence: VDEMSQDIIK, peptide start residue: 250) | 0.332
11 | UniProt Q91YR7 (peptide sequence: KIGEILVLVAAR, peptide start residue: 925) | 0.565
